Experimental data reported in article PMC10614411, “Endometrial cancer (EC) derived G3BP1 overexpression and mutant promote EC tumorigenesis and metastasis via SPOP/ERα axis” (Cell Communication and Signaling : CCS, 2023).
These are yes or no findings as the source states them, for the method shown. Binding seen in cells or lysates may run through a third protein. Some binding calls cover weakened binding; strength is not graded here.

Protein sequences, listed by entry. Tags and fused reporters are not part of them. Lines headed by an entry give the natural chain unless they say otherwise; changes in a name come on top.
UniProt O43791: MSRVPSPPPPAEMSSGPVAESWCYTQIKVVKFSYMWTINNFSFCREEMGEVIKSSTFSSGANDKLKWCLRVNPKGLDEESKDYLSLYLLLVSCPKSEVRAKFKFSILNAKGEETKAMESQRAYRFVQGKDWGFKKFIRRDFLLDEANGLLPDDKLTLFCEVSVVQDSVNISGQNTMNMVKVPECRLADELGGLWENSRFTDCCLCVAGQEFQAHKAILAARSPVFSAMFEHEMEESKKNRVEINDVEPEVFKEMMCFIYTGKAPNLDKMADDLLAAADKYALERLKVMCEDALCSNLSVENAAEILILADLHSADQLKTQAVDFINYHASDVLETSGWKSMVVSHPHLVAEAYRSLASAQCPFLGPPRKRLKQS
UniProt Q13283: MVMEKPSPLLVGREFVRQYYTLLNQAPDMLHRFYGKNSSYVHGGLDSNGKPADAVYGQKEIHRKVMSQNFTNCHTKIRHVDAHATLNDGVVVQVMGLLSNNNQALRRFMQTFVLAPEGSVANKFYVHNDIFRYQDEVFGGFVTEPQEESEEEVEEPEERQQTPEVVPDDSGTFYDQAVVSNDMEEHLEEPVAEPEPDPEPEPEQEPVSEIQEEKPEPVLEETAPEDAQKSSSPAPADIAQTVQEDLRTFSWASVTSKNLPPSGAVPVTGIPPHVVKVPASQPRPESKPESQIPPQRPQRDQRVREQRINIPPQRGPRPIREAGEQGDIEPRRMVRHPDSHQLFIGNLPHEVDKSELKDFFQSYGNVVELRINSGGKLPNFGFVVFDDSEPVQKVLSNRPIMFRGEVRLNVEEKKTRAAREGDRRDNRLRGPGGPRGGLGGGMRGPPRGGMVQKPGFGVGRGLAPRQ
UniProt P03372: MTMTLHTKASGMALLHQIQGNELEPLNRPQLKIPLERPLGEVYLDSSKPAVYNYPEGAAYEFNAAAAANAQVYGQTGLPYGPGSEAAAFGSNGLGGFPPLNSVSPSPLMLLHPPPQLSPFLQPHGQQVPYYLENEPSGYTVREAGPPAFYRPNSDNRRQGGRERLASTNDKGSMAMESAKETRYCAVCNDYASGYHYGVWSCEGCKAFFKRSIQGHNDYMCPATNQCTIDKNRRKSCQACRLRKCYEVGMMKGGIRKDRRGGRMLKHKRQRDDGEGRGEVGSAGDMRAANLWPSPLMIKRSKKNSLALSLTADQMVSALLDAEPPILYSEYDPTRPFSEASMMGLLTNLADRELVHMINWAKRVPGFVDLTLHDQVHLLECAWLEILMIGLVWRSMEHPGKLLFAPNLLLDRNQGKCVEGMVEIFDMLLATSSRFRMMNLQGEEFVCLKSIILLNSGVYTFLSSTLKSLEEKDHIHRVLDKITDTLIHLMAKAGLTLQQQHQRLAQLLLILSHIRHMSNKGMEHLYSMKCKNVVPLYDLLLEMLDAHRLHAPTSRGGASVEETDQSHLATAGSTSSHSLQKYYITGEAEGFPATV

The substances below were run against Speckle-type POZ protein (SPOP), expressed in HEK293T cells (UniProt O43791) (assay: co-IP; HEK 293T cells transfected with the indicated constructs, MG132 for 8 h (30 uM in the methods, 25 uM in the legend), lysed in Medium RIPA buffer; anti-Flag M2 agarose beads overnight, washed 3 times with BC100, eluted with FLAG peptide, Western blot; in one panel with increasing G3BP1).

| Substance | binding |
| --- | --- |
| Ras-GTPase-activating protein binding protein 1 (G3BP1), wild type, expressed in HEK293T cells (from UniProt Q13283 1-466) | binds |
| Estrogen receptor alpha (ERα), expressed in HEK293T cells (from UniProt P03372 1-595) | binds |
| G3BP1 Q392* (endometrial-cancer nonsense mutant), expressed in HEK293T cells (from UniProt Q13283 1-391) (domain or fragment) | binds |
